Measurements reported in PubChem BioAssay AID686938 (Drosophila RNAi Screening Center, 2013).

Assay: 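Fly genes required for calcium entry once internal stores are emptied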 (primary screen)
Cell system: Drosophila S2R+ cells
Knock-down reagent: long dsRNA against Drosophila genes, about 0.25 µg dsRNA per well, roughly 10,000 cells
Time to read-out: 5 days of knock-down before the calcium assay
Conditions: thapsigargin (SERCA pump blocker) to empty calcium stores; entry signal taken 4 min after adding it
Measured: 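Duplicate raw fluo-4 intensities per well from a plate reader, at rest and four minutes after thapsigargin emptied calcium stores; entry-to-rest ratio filled for only some wells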
Reading the numbers: calcium entry signal: higher = stronger calcium signal after store depletion; entry to resting ratio: higher = more calcium entry relative to resting level; resting calcium signal: higher = higher resting calcium signal
Hit rule: 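Called when the plate z-score of the entry-to-rest ratio, mean of duplicates, falls below −3; wells with low overall dye signal (Fmax z below −2) or more than five off-targets excluded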
Meaning of the calls: active = strongly reduced calcium entry; inactive = no strong reduction
The deposit covers about 23,000 reagents; shown is an unselected part of those with a known target gene and a result. Of all reagents, 75 (0.33%) got an active call. 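Raw plate signals without normalisation; calls rest on plate z-scores that were not deposited; ratio present for only 364 wells.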 The record does not give: the dose of the treatment.

{"Target gene": "hgo (GeneID 34552)", "dsRNA": "DRSC03544", "calcium entry signal, replicate 1 (fluorescence units)": 4.60e7, "calcium entry signal, replicate 2 (fluorescence units)": 5.77e7, "resting calcium signal, replicate 1 (fluorescence units)": 2.02e7, "resting calcium signal, replicate 2 (fluorescence units)": 2.45e7, "activity call": "inactive"}
{"Target gene": "Best2 (GeneID 38727)", "dsRNA": "DRSC09712", "calcium entry signal, replicate 1 (fluorescence units)": 2.90e7, "calcium entry signal, replicate 2 (fluorescence units)": 4.44e7, "resting calcium signal, replicate 1 (fluorescence units)": 1.41e7, "resting calcium signal, replicate 2 (fluorescence units)": 1.93e7, "activity call": "inactive"}
{"Target gene": "Regnase-1 (GeneID 42394)", "dsRNA": "DRSC14278", "calcium entry signal, replicate 1 (fluorescence units)": 3.83e7, "calcium entry signal, replicate 2 (fluorescence units)": 3.00e7, "resting calcium signal, replicate 1 (fluorescence units)": 1.80e7, "resting calcium signal, replicate 2 (fluorescence units)": 1.38e7, "activity call": "inactive"}
{"Target gene": "c(3)G (GeneID 47765)", "dsRNA": "DRSC15245", "calcium entry signal, replicate 1 (fluorescence units)": 2.81e7, "calcium entry signal, replicate 2 (fluorescence units)": 2.44e7, "resting calcium signal, replicate 1 (fluorescence units)": 1.35e7, "resting calcium signal, replicate 2 (fluorescence units)": 1.08e7, "activity call": "inactive"}
{"Target gene": "Pfdn2 (GeneID 46121)", "dsRNA": "DRSC10618", "calcium entry signal, replicate 1 (fluorescence units)": 2.73e7, "calcium entry signal, replicate 2 (fluorescence units)": 3.89e7, "resting calcium signal, replicate 1 (fluorescence units)": 1.36e7, "resting calcium signal, replicate 2 (fluorescence units)": 1.61e7, "activity call": "inactive"}
{"Target gene": "Alg12 (GeneID 41191)", "dsRNA": "DRSC16416", "calcium entry signal, replicate 1 (fluorescence units)": 3.45e7, "calcium entry signal, replicate 2 (fluorescence units)": 3.59e7, "resting calcium signal, replicate 1 (fluorescence units)": 1.73e7, "resting calcium signal, replicate 2 (fluorescence units)": 1.98e7, "activity call": "inactive"}
{"Target gene": "RFeSP (GeneID 44390)", "dsRNA": "DRSC00702", "calcium entry signal, replicate 1 (fluorescence units)": 4.10e7, "calcium entry signal, replicate 2 (fluorescence units)": 4.92e7, "resting calcium signal, replicate 1 (fluorescence units)": 1.76e7, "resting calcium signal, replicate 2 (fluorescence units)": 1.83e7, "activity call": "inactive"}
{"Target gene": "CG7044 (GeneID 42497)", "dsRNA": "DRSC16180", "calcium entry signal, replicate 1 (fluorescence units)": 4.67e7, "calcium entry signal, replicate 2 (fluorescence units)": 4.21e7, "resting calcium signal, replicate 1 (fluorescence units)": 4.96e7, "resting calcium signal, replicate 2 (fluorescence units)": 1.85e7, "activity call": "inactive"}
{"Target gene": "al (GeneID 33208)", "dsRNA": "DRSC00799", "calcium entry signal, replicate 1 (fluorescence units)": 4.07e7, "calcium entry signal, replicate 2 (fluorescence units)": 3.72e7, "resting calcium signal, replicate 1 (fluorescence units)": 1.95e7, "resting calcium signal, replicate 2 (fluorescence units)": 1.80e7, "activity call": "inactive"}
{"Target gene": "ro (GeneID 43234)", "dsRNA": "DRSC17046", "calcium entry signal, replicate 1 (fluorescence units)": 4.00e7, "calcium entry signal, replicate 2 (fluorescence units)": 5.25e7, "resting calcium signal, replicate 1 (fluorescence units)": 2.03e7, "resting calcium signal, replicate 2 (fluorescence units)": 2.11e7, "activity call": "inactive"}
{"Target gene": "CG10286 (GeneID 40786)", "dsRNA": "DRSC12520", "calcium entry signal, replicate 1 (fluorescence units)": 3.09e7, "calcium entry signal, replicate 2 (fluorescence units)": 4.41e7, "resting calcium signal, replicate 1 (fluorescence units)": 1.40e7, "resting calcium signal, replicate 2 (fluorescence units)": 1.96e7, "activity call": "inactive"}
{"Target gene": "CG10211 (GeneID 35106)", "dsRNA": "DRSC02027", "calcium entry signal, replicate 1 (fluorescence units)": 5.46e7, "calcium entry signal, replicate 2 (fluorescence units)": 4.02e7, "resting calcium signal, replicate 1 (fluorescence units)": 2.26e7, "resting calcium signal, replicate 2 (fluorescence units)": 1.72e7, "activity call": "inactive"}
{"Target gene": "LysP (GeneID 38129)", "dsRNA": "DRSC08676", "calcium entry signal, replicate 1 (fluorescence units)": 2.79e7, "calcium entry signal, replicate 2 (fluorescence units)": 2.70e7, "resting calcium signal, replicate 1 (fluorescence units)": 1.37e7, "resting calcium signal, replicate 2 (fluorescence units)": 1.22e7, "activity call": "inactive"}
{"Target gene": "sv (GeneID 43825)", "dsRNA": "DRSC17221", "calcium entry signal, replicate 1 (fluorescence units)": 4.33e7, "calcium entry signal, replicate 2 (fluorescence units)": 6.17e7, "entry to resting ratio": 2, "resting calcium signal, replicate 1 (fluorescence units)": 2.13e7, "resting calcium signal, replicate 2 (fluorescence units)": 2.56e7, "activity call": "inactive"}
